Results: paper PMC11704248, “Alternative splicing in the DBD linker region of p63 modulates binding to DNA and iASPP in vitro” (Cell Death & Disease, 2025)
These are yes or no findings as the source states them, for the method shown. In cells and extracts the contact can be indirect. Some binding calls cover weakened binding; strength is not graded here. Sequences can lack the tags named with a protein. Values belong to the binder of their own block, whether it stands above or below them.

Molecular target: T1, GST-tagged iASPP CTD (UniProt Q8WUF5)
T1 sequence: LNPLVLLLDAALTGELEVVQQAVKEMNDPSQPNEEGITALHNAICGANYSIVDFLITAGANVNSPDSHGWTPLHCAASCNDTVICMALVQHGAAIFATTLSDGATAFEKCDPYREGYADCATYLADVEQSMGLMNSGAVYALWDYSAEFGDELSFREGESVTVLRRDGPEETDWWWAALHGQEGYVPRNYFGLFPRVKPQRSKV
Experiment: pull-down; purified GST-tagged ASPP CTDs immobilised on magnetic glutathione agarose beads; N-terminally Myc-tagged prey in vitro translated in RRL; 3 h at 4 °C; 50 mM Tris pH 8.0, 150 mM NaCl, 0.1% Tween-20; WB with α-Myc; only the target purified

binding: binds
B1: Myc-tagged ΔNp73α WT (protein, UniProt O15350-8 1-587)
chain: MLYVGDPARHLATAQFNLLSSTMDQMSSRAASASPYTPEHAASVPTHSPYAQPSSTFDTMSPAPVIPSNTDYPGPHHFEVTFQQSSTAKSATWTYSPLLKKLYCQIAKTCPIQIKVSTPPPPGTAIRAMPVYKKAEHVTDVVKRCPNHELGRDFNEGQSAPASHLIRVEGNNLSQYVDDPVTGRQSVVVPYEPPQVGTEFTTILYNFMCNSSCVGGMNRRPILIIITLEMRDGQVLGRRSFEGRICACPGRDRKADEDHYREQQALNESSAKNGAASKRAFKQSPPAVPALGAGVKKRRHGDEDTYYLQVRGRENFEILMKLKESLELMELVPQPLVDSYRQQQQLLQRPSHLQPPSYGPVLSPMNKVHGGMNKLPSVNQLVGQPPPHSSAATPNLGPVGPGMLNNHGHAVPANGEMSSSHSAQSMVSGSHCTPPPPYHADPSLVSFLTGLGCPNCIEYFTSQGLQSIYHLQNLTIEDLGALKIPEQYRMTIWRGLQDLKQGHDYSTAQQLLRSSNAATISIGGSGELQRQRVMEAVHFRVRHTITIPNRGGPGGGPDEWADFGFDLPDCKARKQPIKEEFTEAEIH

binding: binds
B2: Myc-tagged ΔNp63α WT (protein, UniProt Q9H3D4-2 1-586)
chain: MLYLENNAQTQFSEPQYTNLGLLNSMDQQIQNGSSSTSPYNTDHAQNSVTAPSPYAQPSSTFDALSPSPAIPSNTDYPGPHSFDVSFQQSSTAKSATWTYSTELKKLYCQIAKTCPIQIKVMTPPPQGAVIRAMPVYKKAEHVTEVVKRCPNHELSREFNEGQIAPPSHLIRVEGNSHAQYVEDPITGRQSVLVPYEPPQVGTEFTTVLYNFMCNSSCVGGMNRRPILIIVTLETRDGQVLGRRCFEARICACPGRDRKADEDSIRKQQVSDSTKNGDGTKRPFRQNTHGIQMTSIKKRRSPDDELLYLPVRGRETYEMLLKIKESLELMQYLPQHTIETYRQQQQQQHQHLLQKQTSIQSPSSYGNSSPPLNKMNSMNKLPSVSQLINPQQRNALTPTTIPDGMGANIPMMGTHMPMAGDMNGLSPTQALPPPLSMPSTSHCTPPPPYPTDCSIVSFLARLGCSSCLDYFTTQGLTTIYQIEHYSMDDLASLKIPEQFRHAIWKGILDHRQLHEFSSPSHLLRTPSSASTVSVGSSETRGERVIDAVRFTLRQTISFPPRDEWNDFNFDMDARRNKQQRIKEEGE
